Results as given in the supplement of paper PMC10338343.
± gives the standard deviation. The entries are a selection whose mix differs from that of the whole data set. Many of these values have a large error. The list shows a part of the results.

What was measured:
[1] = test system: MILI (PIWIL2) piRISC loaded with L1MC piRNA (26 nt); assay: pre-steady-state target cleavage rate (min^-1); higher = faster piRNA-guided slicing of the target; conditions: guide: L1MC piRNA 5'p-UAACUAAAUACUAUGCAAGCUGUAGG
In short: (§1)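 The pre-steady-state cleavage rate was derived from a burst-and-steady-state fit of Cleave-'n-Seq data. For these assays, 1 nM active affinity-purified piRISC loaded with a single synthetic guide was mixed with […] a transcribed, DNA-blocked target RNA library in HEPES–potassium acetate buffer at 33 °C, with or without 500 nM GTSF1 partner protein, for 0–8 or 0–960 min. Sequencing counts of uncleaved targets were normalised to depth and to weakly complementary targets, and k3 was capped at 0.0001 min^-1 after three trials were pooled.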

[2] = test system: MIWI (PIWIL1) piRISC loaded with L1MC piRNA (30 nt); assay: as above; conditions: guide: L1MC piRNA 5'p-UAACUAAAUACUAUGCAAGCUGUAGGUCCU
In short: as §1

[3] = test system: EfPiwi piRISC loaded with L1MC piRNA (26 nt); assay: pre-steady-state target cleavage rate (min^-1); guide: L1MC piRNA 5'p-UAACUAAAUACUAUGCAAGCUGUAGG; MIWI and MILI are mouse PIWI proteins and EfPiwi is from a freshwater sponge; tags in brackets are library labels; higher = faster piRNA-guided slicing of the target; conditions: auxiliary factor: 500 nM Ephydatia muelleri Gtsf1
In short: as §1

[4] = auxiliary factor: 500 nM mouse GTSF1
[5] = auxiliary factor: none (no GTSF1)

Sequence | pre-steady-state target cleavage rate [1, 4] | pre-steady-state target cleavage rate [1, 5] | pre-steady-state target cleavage rate [2, 5] | pre-steady-state target cleavage rate [3] | pre-steady-state target cleavage rate [2, 4]
UCCUGGAUGUGGAUGCAUAGUAUUUAGUUA | 0.092 ± 0.012 | 0.00877 ± 0.0027 | 0.00243 ± 0.0043 | 0.00943 ± 0.0037 | –
UCCUGGAUGUCGUUGCAUAGUCAUUUAGUUA | 0.00441 ± 0.0039 | 0.00434 ± 0.0028 | 0.00337 ± 0.0034 | 0.000339 ± 0.011 | 0.00257 ± 0.0048
UCCUCCUUCAGCUUGCUUAGUAUUUAGUUA | 0.286 ± 0.015 | 0.00762 ± 0.002 | 0.0243 ± 0.0053 | 0.0651 ± 0.022 | 1.31 ± 0.054
UCCUGGAUGUCCUUGCAUAGUAAUUAGUAA | 0.0241 ± 0.0076 | 0.00153 ± 0.0046 | 0.00143 ± 0.0041 | 0.00251 ± 0.0053 | 0.0038 ± 0.0042
UCCUGGAUGUCGAACCAUAGUAUUUUAGUUA | 0.000813 ± 0.0077 | 0.000308 ± 0.013 | 0.000388 ± 0.017 | 0.000153 ± 0.016 | 0.000185 ± 0.018
UCCUCGUACAGCUUGCAUAGUUUUUAGUUA | 0.0651 ± 0.008 | 0.00493 ± 0.0018 | 0.0475 ± 0.011 | 0.0267 ± 0.0072 | 0.478 ± 0.013
UCCUGGAUGAGCUUGCAUUCAAUUUAGUUA | 0.00387 ± 0.0044 | 0.00165 ± 0.0059 | 0.000868 ± 0.0079 | 0.000324 ± 0.01 | 0.00274 ± 0.0046
UCCUGGAUGUCGAAGCAUAGUAUUUAGUAUA | 0.0394 ± 0.0091 | 0.00232 ± 0.003 | 0.00127 ± 0.0064 | 0.000151 ± 0.028 | 0.00163 ± 0.0077
UCCUGGAUCAGCUUGCAUCAGUAUUUAGUUA | 0.0028 ± 0.0049 | 0.00111 ± 0.0058 | 0.00104 ± 0.0063 | 0.000454 ± 0.0073 | 0.00223 ± 0.0047
UCCUGGAUGUCGAACGUAAGUUUAUAGUUA | 0.000209 ± 0.033 | 0.000272 ± 0.022 | 0.000199 ± 0.027 | 0.000122 ± 0.022 | 0.000351 ± 0.018
UCCUGGAUGUCCUUGCAUUGUAUUAAGUUA | 0.0479 ± 0.012 | 0.00424 ± 0.0019 | 0.00118 ± 0.0057 | 0.00113 ± 0.0063 | 0.00204 ± 0.0062
UCCUGGUUCAGCUUGCAUAGUAUUUAGUAA | 0.144 ± 0.028 | 0.00573 ± 0.0029 | 0.0354 ± 0.008 | 0.00696 ± 0.0035 | 0.528 ± 0.055
UCCUCCUACAGCUUGCAUACUAUUUAGAUA | 0.0353 ± 0.01 | 0.000949 ± 0.0042 | 0.0075 ± 0.0022 | 0.00315 ± 0.0027 | 0.0831 ± 0.015
UCCUGGAUGUGCUUGCUAAGUAUUUAGAAA | 0.00225 ± 0.0049 | 0.000909 ± 0.0058 | 0.00107 ± 0.0077 | 0.000274 ± 0.017 | 0.00149 ± 0.0079
UCCUGGAUGAGCUUGCUAUGUAUUUAGUAA | 0.00283 ± 0.0044 | 0.00172 ± 0.0037 | 0.000947 ± 0.0056 | 0.000498 ± 0.008 | 0.00255 ± 0.0049
UCCUGGAUGUCGAAGCAAUAGUAUUUAGUUA | 0.00151 ± 0.0067 | 0.000393 ± 0.011 | 0.000706 ± 0.0074 | 0.000881 ± 0.0088 | 0.000189 ± 0.048
UCCUGGAUGUCGAAGCAUACUAUUUAGUUA | 0.00193 ± 0.0065 | 0.000913 ± 0.0056 | 0.000859 ± 0.0067 | 0.000364 ± 0.0099 | 0.000959 ± 0.011
UCCUGGAUGUCGAAGCUAUAGUAUUUAGUUA | 0.000595 ± 0.01 | 0.000391 ± 0.012 | 0.000663 ± 0.0062 | 0.000282 ± 0.0088 | 0.000123 ± 0.055
UCCUGGAUGUCGUUGCUAGUAUUUAGUUA | 0.00138 ± 0.0058 | 0.00131 ± 0.0043 | 0.00139 ± 0.0047 | 0.000375 ± 0.0083 | 0.000585 ± 0.014

Sequence | pre-steady-state target cleavage rate [1, 4] | pre-steady-state target cleavage rate [1, 5] | pre-steady-state target cleavage rate [2, 5] | pre-steady-state target cleavage rate [3] | pre-steady-state target cleavage rate [2, 4]
UCCUGGAUCAGCUUCCAUAGUAUUUACAAA | 0.00232 ± 0.006 | 0.000348 ± 0.013 | 0.000736 ± 0.0097 | 0.00192 ± 0.0032 | 0.00432 ± 0.0056
UCCUGCUUCAGCUAGCAUAGUAUUUAGUUA | 0.322 ± 0.02 | 0.00715 ± 0.0018 | 0.0109 ± 0.0042 | 0.0566 ± 0.015 | 1.32 ± 0.056
UCCUGGUACAGCUUGCUAUGUAUUUACAAA | 0.0017 ± 0.0059 | 0.000657 ± 0.0083 | 0.000977 ± 0.0065 | 0.00124 ± 0.0064 | 0.0017 ± 0.0065
UCCUGGAUGUCGAACCAUAGUAUUUGGUUA | 0.000663 ± 0.011 | 0.000251 ± 0.018 | 0.000211 ± 0.018 | 0.000129 ± 0.021 | 0.00032 ± 0.016
UCCUGGAUGUCGUAGCAAAGUAUUUAGUUA | 0.00343 ± 0.0037 | 0.00108 ± 0.0051 | 0.00109 ± 0.0062 | 0.00129 ± 0.008 | 0.00117 ± 0.0073
UCCUGGAUGUGCUUGCAUUGUAUUUAGAAA | 0.0114 ± 0.0047 | 0.000851 ± 0.0069 | 0.0015 ± 0.0059 | 0.0016 ± 0.0025 | 0.00352 ± 0.0044
UCCUGGAUGUGCUUGCAUAUGUAUUUAGUUA | 0.00245 ± 0.0054 | 0.00121 ± 0.007 | 0.000984 ± 0.01 | 0.000372 ± 0.014 | 0.00129 ± 0.0085
UCCUGGAUGUCGAACCAAAGUAUUUAGUAA | 0.000399 ± 0.017 | < 0.0001 | 0.000121 ± 0.022 | 0.000114 ± 0.023 | 0.000314 ± 0.023
UCCUGGAUGUCGAAGCAUAGUAUUUAGGUA | 0.00926 ± 0.0047 | 0.00144 ± 0.0035 | 0.00176 ± 0.0043 | 0.000868 ± 0.007 | 0.00102 ± 0.01
UCCUGGAUGUCGAUGCUUAGUUUUUAGUUA | 0.00221 ± 0.0051 | 0.00151 ± 0.0048 | 0.000544 ± 0.013 | 0.000208 ± 0.019 | 0.000307 ± 0.024
UCCUGGAUGUGCUUGCAUAGAUUUUAGUAA | 0.00169 ± 0.0071 | 0.00158 ± 0.0036 | 0.000983 ± 0.0055 | 0.000735 ± 0.006 | 0.00109 ± 0.01
UCCUGGAUGUCGUUGCUAAGUAUUUAGUUA | 0.00347 ± 0.004 | 0.0021 ± 0.003 | 0.000252 ± 0.0093 | 0.00042 ± 0.0088 | 0.000433 ± 0.024
UCCUGGAUGAGCUUGCAUACGUAUUUAGUUA | 0.00188 ± 0.0076 | 0.00117 ± 0.0053 | 0.000243 ± 0.013 | 0.000822 ± 0.012 | 0.000926 ± 0.014
UCCUGGUUCAGCUUGCAUAGUAUUUACUUA | 0.0561 ± 0.02 | 0.00288 ± 0.0034 | 0.0237 ± 0.0048 | 0.0025 ± 0.0031 | 0.18 ± 0.041
UCCUGGACCAGCUUGCAUAGUAUUUAGUUA | 0.246 ± 0.02 | 0.00604 ± 0.0027 | 0.0367 ± 0.0074 | 0.159 ± 0.037 | 0.915 ± 0.048
UCCUGGAUGUCGUUGCAUAGAUAUUUAGUUA | 0.00379 ± 0.0039 | 0.00298 ± 0.0032 | 0.00157 ± 0.0055 | 0.000329 ± 0.011 | 0.0011 ± 0.0085
UCCUGCUACAGCUUGCAUAGUAUAUUGUUA | 0.187 ± 0.036 | 0.00238 ± 0.0039 | 0.0123 ± 0.0026 | 0.00351 ± 0.0021 | 0.377 ± 0.037
UCCUGGAUGUGCUUGCAUAGUUAUUAGUAA | 0.00196 ± 0.0044 | 0.00158 ± 0.0053 | 0.00126 ± 0.0034 | 0.000336 ± 0.013 | 0.00129 ± 0.0066
UCCUGGAUGUCCUAGCUUAGUAUUUAGUUA | 0.0102 ± 0.0041 | 0.00159 ± 0.0037 | 0.000843 ± 0.0073 | 0.000376 ± 0.0098 | 0.00336 ± 0.0044

Three entries from above, set out differently.
Sequence	pre-steady-state target cleavage rate [1, 4]	pre-steady-state target cleavage rate [1, 5]	pre-steady-state target cleavage rate [2, 5]	pre-steady-state target cleavage rate [3]	pre-steady-state target cleavage rate [2, 4]
UCCUGGAUGUGCUUGCAUUGUAUUUAGAAA	0.0114 ± 0.0047	0.000851 ± 0.0069	0.0015 ± 0.0059	0.0016 ± 0.0025	0.00352 ± 0.0044
UCCUGGAUGUGCUUGCAUAUGUAUUUAGUUA	0.00245 ± 0.0054	0.00121 ± 0.007	0.000984 ± 0.01	0.000372 ± 0.014	0.00129 ± 0.0085
UCCUGGAUGUCGAACCAAAGUAUUUAGUAA	0.000399 ± 0.017	< 0.0001	0.000121 ± 0.022	0.000114 ± 0.023	0.000314 ± 0.023
